The data set can be described thus: general procedure: Boc solid-phase peptide synthesis; BHA resin (Peptide Kenkyusho, divinylbenzene 2%, 100 to 200 mesh, 0.61 meq/g); HOBt (with Boc-Asn). Conditions: whole synthesis.

For the substance (Oct^1, Ala^3, Cys(CA)^7)-CCT, the isolated mass (scale 50 mg protected peptide resin) was determined as 0.9 mg.

Substance (Oct^1, Cys(Acm)^7)-CCT returned a crude mass (scale 200 mg resin peptide) of 31.0 mg.

Substance (Oct^1, Cys(CA)^7)-CCT returned a crude mass (scale 200 mg resin peptide) of 26.8 mg.

(Oct^1, Thr^3, Cys(Acm)^7)-CCT: the crude mass (scale 50.7 mg resin peptide) is 19.2 mg.

(Values after US5010174A (Mitsubishi Petrochemical Co., Ltd., priority 1987, dated 1991).)
